The values that follow come from article PMC13064919, “Novel extracellular vesicle release pathway facilitated by toxic superoxide dismutase 1 oligomers” (Neurobiology of disease, 2026).

The chains behind the UniProt entries cited, without tags or fusion partners.
UniProt Q9WUK4: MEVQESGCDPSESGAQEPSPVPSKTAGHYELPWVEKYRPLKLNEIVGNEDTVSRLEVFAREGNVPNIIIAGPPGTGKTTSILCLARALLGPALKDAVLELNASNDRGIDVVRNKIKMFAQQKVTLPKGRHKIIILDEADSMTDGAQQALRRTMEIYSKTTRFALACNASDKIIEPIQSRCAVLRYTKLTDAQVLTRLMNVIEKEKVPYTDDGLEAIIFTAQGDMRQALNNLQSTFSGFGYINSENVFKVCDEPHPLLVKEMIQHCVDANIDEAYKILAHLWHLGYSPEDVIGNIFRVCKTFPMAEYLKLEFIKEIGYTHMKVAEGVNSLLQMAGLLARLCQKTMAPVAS

In assay [1] the target is T1, Stathmin-2 (mouse (endogenous in NSC-34)) (UniProt P55821).
T1 sequence: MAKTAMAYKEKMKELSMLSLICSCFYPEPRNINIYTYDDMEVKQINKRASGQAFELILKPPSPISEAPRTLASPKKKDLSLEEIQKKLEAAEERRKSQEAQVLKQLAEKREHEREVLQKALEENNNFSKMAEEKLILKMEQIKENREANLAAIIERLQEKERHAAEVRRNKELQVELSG
Nature of the assay: affinity purification with mass spectrometry; RIPA lysate of NSC-34 cells overexpressing FH (F20L/H46Q, trimer-stabilising) SOD1; antibody to VAPB, VCP or Stathmin-2 overnight at 4 °C, Protein G magnetic beads 2 h at room temperature, washed three times with 1x PBS, on-bead trypsin digestion, shotgun mass spectrometry.

Assay [2] deals with Valosin-containing protein (VCP) (mouse (endogenous in NSC-34)) (UniProt Q01853). Described as above.
The target in assay [3] is T1, Stathmin-2 (mouse (endogenous in NSC-34)). Nature of the assay: condition: only in cells overexpressing WT SOD1 instead of FH SOD1; affinity purification with mass spectrometry; as a1, but RIPA lysate of NSC-34 cells overexpressing WT SOD1 (control).
Assay [4] addresses Valosin-containing protein (VCP) (mouse (endogenous in NSC-34)) (UniProt Q01853). Described as above.

Results are given in words; binding and its absence hold for the method and conditions named. In cells and extracts the contact can be indirect. A yes stands for co-enrichment or nearness to the bait. Other partners may have been found. For some of these results: A no says only that the protein was not detected with the bait.

As to “Replication Factor C subunit 2 (Rfc2) (from UniProt Q9WUK4 1-349)”, the binding entry in assay [1] is “binds”; in assay [2] it was “binds”; in assay [3], “no binding”; in assay [4], “no binding”.
